Data published in the supplement of paper PMC10849652.
This is one part of the list.

Protein sequences, listed by entry. Tags and fused reporters are not part of them. Lines headed by an entry give the natural chain unless they say otherwise; changes in a name come on top.
UniProt P12955: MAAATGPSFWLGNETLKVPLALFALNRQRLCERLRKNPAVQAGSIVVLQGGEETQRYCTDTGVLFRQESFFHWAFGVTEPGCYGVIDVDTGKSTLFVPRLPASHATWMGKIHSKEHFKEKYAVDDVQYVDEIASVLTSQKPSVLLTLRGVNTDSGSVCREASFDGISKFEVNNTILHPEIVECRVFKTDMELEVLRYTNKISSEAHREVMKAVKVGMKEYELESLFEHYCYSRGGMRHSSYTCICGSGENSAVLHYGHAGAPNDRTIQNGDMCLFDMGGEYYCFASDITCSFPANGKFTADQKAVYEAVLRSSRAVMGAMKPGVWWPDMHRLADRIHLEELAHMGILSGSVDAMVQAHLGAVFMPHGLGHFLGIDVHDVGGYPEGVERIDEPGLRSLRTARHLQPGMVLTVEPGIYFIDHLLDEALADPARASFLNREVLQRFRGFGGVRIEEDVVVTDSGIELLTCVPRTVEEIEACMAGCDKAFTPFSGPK
UniProt P49585: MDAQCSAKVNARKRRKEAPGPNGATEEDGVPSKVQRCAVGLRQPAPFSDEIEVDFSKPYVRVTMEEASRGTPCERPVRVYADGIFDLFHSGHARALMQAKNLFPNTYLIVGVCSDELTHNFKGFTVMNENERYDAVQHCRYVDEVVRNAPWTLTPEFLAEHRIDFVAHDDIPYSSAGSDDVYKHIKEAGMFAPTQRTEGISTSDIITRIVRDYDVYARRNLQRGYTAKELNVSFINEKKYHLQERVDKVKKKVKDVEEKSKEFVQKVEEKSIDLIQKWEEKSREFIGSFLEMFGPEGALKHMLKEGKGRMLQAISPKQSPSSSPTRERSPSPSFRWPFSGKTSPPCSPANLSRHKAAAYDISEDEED
UniProt Q92968: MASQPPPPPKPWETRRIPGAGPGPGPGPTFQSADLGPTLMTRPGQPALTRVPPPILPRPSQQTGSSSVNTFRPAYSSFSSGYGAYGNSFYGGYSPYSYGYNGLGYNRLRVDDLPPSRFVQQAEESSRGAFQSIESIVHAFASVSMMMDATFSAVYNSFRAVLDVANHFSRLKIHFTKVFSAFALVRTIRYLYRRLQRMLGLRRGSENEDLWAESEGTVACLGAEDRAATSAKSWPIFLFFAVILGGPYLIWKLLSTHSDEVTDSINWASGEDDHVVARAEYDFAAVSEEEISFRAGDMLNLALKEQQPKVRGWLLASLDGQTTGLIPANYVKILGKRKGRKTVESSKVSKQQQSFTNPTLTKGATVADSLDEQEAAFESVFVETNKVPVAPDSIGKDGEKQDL
UniProt Q8IZL8: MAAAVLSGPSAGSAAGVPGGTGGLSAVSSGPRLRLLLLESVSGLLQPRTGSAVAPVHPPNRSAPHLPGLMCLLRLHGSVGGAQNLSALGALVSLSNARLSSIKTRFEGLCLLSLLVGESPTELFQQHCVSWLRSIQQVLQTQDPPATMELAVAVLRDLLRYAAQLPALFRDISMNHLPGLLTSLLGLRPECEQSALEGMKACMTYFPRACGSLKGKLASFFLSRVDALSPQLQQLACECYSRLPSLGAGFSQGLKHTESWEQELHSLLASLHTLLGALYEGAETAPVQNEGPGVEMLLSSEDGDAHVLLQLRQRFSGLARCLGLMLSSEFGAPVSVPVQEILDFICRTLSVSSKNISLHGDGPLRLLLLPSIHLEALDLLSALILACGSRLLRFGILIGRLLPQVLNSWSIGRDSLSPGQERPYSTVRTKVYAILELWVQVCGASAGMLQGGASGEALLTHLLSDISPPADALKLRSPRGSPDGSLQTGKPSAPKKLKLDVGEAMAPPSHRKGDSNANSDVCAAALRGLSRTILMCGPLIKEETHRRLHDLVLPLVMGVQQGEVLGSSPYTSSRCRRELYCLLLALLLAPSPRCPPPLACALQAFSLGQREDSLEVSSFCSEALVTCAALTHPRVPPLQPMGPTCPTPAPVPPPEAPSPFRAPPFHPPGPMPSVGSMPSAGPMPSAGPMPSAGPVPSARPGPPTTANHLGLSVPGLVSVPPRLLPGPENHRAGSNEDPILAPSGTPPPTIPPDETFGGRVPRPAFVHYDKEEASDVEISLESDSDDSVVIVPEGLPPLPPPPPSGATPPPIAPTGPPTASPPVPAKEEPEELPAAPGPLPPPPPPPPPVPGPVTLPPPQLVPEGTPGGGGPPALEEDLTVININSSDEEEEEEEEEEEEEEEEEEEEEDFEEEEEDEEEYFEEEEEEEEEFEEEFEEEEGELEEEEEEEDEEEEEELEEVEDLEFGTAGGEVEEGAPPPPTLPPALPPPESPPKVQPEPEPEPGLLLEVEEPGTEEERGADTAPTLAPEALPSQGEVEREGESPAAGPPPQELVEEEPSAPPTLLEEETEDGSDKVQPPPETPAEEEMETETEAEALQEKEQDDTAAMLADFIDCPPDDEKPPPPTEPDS
UniProt O95613: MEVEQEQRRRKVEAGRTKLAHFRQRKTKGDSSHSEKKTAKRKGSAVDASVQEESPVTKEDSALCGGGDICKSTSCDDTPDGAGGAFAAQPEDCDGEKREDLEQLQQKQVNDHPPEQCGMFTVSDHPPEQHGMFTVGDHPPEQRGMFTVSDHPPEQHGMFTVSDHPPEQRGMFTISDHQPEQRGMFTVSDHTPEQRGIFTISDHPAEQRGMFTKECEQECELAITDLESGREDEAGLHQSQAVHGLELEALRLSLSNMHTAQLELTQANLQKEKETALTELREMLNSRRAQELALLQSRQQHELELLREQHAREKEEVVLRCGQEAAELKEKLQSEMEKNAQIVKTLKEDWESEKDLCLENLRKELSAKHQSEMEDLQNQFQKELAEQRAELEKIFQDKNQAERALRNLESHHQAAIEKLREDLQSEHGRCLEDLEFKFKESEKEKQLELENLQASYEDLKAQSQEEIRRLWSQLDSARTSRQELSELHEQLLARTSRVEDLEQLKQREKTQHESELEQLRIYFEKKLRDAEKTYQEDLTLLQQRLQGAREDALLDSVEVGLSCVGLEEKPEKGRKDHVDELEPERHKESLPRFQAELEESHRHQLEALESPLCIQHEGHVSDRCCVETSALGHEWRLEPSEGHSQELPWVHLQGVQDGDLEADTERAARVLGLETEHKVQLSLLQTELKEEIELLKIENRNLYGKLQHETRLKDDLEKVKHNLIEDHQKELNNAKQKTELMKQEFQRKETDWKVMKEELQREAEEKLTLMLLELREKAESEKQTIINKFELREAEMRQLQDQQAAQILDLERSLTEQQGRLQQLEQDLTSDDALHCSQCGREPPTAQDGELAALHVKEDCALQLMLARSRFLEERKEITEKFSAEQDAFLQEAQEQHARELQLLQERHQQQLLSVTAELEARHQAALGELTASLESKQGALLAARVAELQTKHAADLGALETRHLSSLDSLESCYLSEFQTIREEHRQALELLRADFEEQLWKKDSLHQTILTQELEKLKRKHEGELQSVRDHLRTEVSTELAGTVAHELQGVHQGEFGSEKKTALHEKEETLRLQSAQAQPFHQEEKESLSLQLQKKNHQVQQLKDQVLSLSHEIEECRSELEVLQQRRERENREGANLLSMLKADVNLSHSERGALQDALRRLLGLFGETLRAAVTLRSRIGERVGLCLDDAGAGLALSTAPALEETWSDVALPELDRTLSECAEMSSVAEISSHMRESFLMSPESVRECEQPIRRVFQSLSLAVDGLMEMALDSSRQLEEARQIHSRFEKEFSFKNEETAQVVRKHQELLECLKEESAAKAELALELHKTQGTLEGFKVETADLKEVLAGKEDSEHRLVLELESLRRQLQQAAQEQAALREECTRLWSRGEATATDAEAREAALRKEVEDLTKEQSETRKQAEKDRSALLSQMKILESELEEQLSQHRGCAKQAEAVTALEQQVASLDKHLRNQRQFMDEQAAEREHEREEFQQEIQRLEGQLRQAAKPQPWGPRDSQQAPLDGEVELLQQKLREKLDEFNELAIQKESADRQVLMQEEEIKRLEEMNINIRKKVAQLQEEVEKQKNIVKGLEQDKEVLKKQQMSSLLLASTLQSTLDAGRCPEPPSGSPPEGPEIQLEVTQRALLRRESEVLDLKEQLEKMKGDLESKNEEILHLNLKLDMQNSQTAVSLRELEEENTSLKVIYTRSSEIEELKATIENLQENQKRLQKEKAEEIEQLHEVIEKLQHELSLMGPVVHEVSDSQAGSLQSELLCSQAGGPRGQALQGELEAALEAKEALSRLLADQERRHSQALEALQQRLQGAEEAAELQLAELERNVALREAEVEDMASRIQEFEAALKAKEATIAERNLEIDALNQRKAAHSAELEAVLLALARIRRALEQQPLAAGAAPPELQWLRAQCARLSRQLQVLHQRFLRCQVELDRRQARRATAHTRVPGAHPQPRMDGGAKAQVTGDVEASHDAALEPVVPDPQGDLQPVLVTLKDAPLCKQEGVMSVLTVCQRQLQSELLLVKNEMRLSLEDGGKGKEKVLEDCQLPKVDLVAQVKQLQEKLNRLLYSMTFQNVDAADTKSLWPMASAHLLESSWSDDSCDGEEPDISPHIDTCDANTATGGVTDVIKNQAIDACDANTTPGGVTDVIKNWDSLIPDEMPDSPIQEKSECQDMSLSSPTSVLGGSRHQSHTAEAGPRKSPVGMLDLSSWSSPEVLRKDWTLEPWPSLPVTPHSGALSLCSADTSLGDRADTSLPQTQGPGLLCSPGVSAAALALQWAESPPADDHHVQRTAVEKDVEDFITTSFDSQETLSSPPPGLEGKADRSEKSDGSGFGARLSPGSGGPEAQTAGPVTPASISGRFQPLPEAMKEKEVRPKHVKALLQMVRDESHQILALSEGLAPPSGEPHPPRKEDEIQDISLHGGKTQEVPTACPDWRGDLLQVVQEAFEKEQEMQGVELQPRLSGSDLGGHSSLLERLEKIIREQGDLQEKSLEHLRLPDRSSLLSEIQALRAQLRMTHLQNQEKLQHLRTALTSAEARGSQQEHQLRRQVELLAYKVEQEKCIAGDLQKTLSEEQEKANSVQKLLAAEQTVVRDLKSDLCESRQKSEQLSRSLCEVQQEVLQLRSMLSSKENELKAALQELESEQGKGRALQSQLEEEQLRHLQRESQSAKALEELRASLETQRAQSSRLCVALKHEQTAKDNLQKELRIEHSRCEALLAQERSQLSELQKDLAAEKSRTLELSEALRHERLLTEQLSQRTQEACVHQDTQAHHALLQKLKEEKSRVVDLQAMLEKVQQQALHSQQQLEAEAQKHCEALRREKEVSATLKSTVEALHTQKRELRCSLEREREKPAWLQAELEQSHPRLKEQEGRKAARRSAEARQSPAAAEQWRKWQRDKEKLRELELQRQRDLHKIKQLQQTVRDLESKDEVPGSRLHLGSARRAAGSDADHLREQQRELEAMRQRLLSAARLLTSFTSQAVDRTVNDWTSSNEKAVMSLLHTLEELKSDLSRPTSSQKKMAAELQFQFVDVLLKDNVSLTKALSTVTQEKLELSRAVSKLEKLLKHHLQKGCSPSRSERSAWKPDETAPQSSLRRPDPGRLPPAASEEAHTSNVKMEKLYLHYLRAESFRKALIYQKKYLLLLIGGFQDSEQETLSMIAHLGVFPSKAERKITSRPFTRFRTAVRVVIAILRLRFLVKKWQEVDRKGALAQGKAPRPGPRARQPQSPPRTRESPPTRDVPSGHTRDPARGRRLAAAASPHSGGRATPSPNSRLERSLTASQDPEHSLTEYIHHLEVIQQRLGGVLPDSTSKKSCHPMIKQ
UniProt O00623: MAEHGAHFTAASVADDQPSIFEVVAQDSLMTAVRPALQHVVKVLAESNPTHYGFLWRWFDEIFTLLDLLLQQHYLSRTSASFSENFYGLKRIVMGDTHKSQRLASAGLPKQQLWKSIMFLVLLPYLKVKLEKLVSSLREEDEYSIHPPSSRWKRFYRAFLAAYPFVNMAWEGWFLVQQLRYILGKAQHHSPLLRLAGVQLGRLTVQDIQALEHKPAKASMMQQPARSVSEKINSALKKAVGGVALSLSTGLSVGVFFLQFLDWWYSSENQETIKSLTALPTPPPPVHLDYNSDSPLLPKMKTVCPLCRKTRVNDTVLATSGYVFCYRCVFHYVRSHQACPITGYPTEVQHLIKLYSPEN
UniProt Q96RD7, whole entry, looked up: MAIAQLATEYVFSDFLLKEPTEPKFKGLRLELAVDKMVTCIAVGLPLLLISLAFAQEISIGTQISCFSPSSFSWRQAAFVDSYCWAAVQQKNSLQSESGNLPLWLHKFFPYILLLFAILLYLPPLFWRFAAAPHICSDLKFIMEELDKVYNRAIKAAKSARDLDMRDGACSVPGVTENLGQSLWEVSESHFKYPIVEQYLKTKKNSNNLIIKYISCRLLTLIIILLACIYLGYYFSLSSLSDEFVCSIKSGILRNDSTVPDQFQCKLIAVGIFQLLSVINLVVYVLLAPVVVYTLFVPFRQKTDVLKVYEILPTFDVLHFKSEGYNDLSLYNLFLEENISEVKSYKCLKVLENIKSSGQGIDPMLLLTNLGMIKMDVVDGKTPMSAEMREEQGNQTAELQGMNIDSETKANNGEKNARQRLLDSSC

Columns and labels:
Test in all cases: log2 fold change, soluble protein after heating vs DMSO (PISA); higher = thermal stabilisation; K562 cells, 10 uM, 30 min; active = over 0.2 and 3.5 SD of the protein, either way, in both replicates (recomputed)
erlotinib = compound: C#Cc1cccc(Nc2ncnc3cc(OCCOC)c(OCCOC)cc23)c1 [erlotinib]
Summary of the method: (§1)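 Quantification of soluble protein used TMTpro 16plex LC-MS/MS, with channel sums equalised. Samples were the supernatant after 21,000xg for 90 min of pooled aliquots from K562 cells (2×10^6 cells/mL) treated with 10 μM compound for 30 min, heated for 3 min over 48°C-58°C, and extracted in PBS with 0.5% NP-40 at 4°C. Values, from duplicates, describe thermal stability against control samples on a log2 fold-change scale.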

[1] = compound: C/C(=N\NC(=O)C1=CC(=CC=C1)S(=O)(=O)N2CCOCC2)/C3=C(C=CC(=C3)Cl)O
Summary of the method: as §1

[2] = compound: C1=CC(=C(C=C1Cl)C2=NC3=NC=CN=C3C(=N2)NC4=CC=NC=C4)F
Summary of the method: as §1

[3] = compound: C1=CC(=CC=C1C2=NC3=C(N2)C=C(C=C3)C(=O)N)OC4=CC=C(C=C4)Cl
Summary of the method: as §1

[4] = compound: C1=CC2=C(C=CC(=C2)/C=C\3/C(=O)NC(=NCC4=CC=CS4)S3)N=C1
Summary of the method: as §1

[5] = compound: C1=CC2=NC=CN=C2C=C1/C=C/3\C(=O)NC(=O)S3
Summary of the method: as §1

[6] = compound: C1=CC=C(C=C1)C2=NC(=C(N2)C3=CC=NC=C3)C4=CC(=C(C=C4)Cl)O
Summary of the method: as §1

[7] = compound: C1=CC=C2C(=C1)C3=NNC4=CC=CC(=C43)C2=O
Summary of the method: as §1

[8] = compound: C1CCN(C1)C(=O)NC2=CC=CC(=C2)NC3=NC=C(C(=N3)NCCC4=CN=CN4)Br
Summary of the method: as §1

[9] = compound: C1CN(CCC1(CC2=CC=C(C=C2)Cl)N)C3=NC=NC4=C3C=CN4
Summary of the method: as §1

Measured: log2 fold change

PAXX (UniProt Q9BUH6)
inactive: erlotinib 0.018 | [1] -0.004 | [2] 0.021 | [3] 0.019 | [4] -0.038 | [5] 0.018 | [6] -0.096 | [7] -0.001 | [8] 0.014 | [9] 0.085

PANK2 (UniProt Q9BZ23)
inactive: erlotinib 0.057 | [1] 0.002 | [2] 0.055 | [3] 0.016 | [4] 0.039 | [5] -0.078 | [6] -0.121 | [7] -0.036 | [8] -0.046 | [9] 0.018

PAK2 (UniProt Q13177)
inactive: erlotinib -0.024 | [1] 0.018 | [2] 0.037 | [3] -0.012 | [4] 0.01 | [5] -0.002 | [6] 0.003 | [7] -0.003 | [8] 0.005 | [9] 0.013

PACSIN2 (UniProt Q9UNF0)
inactive: erlotinib 0.16 | [1] 0.141 | [2] -0.038 | [3] -0.014 | [4] 0.124 | [5] -0.009 | [6] -0.032 | [7] 0.025 | [8] -0.088 | [9] -0.071

PEPD (UniProt P12955)
inactive: erlotinib -0.037 | [1] 0.052 | [2] 0.043 | [3] 0.042 | [4] 0.07 | [5] -0.008 | [6] -0.002 | [7] 0.015 | [8] 0.016 | [9] 0.017

PAK4 (UniProt O96013)
inactive: erlotinib 0.155 | [1] -0.066 | [2] 0.017 | [3] -0.04 | [4] 0.015 | [5] 0.048 | [6] -0.068 | [7] -0.013 | [8] 0.062 | [9] -0.03

PDS5B (UniProt Q9NTI5)
inactive: erlotinib -0.023 | [1] 0.002 | [2] 0.001 | [3] 0.043 | [4] 0.092 | [5] 0.12 | [6] 0.061 | [7] 0.013 | [8] -0.302 | [9] -0.287

PDAP1 (UniProt Q13442)
inactive: erlotinib 0.012 | [1] -0.073 | [2] 0.047 | [3] 0.032 | [4] 0.015 | [5] 0.018 | [6] 0.024 | [7] -0.001 | [8] 0.054 | [9] 0.026

PCYT1A (UniProt P49585)
inactive: erlotinib -0.014 | [1] 0.125 | [2] -0.03 | [3] -0.001 | [4] 0.019 | [5] 0.054 | [6] -0.09 | [7] -0.033 | [8] -0.043 | [9] -0.009

PEX13 (UniProt Q92968)
inactive: erlotinib 0.026 | [1] 0.03 | [2] 0.026 | [3] 0.009 | [4] 0.048 | [5] 0.073 | [6] -0.01 | [7] 0.005 | [8] 0.038 | [9] 0.036

PEX1 (UniProt O43933)
inactive: erlotinib 0.013 | [1] 0.017 | [2] 0.038 | [3] 0.038 | [4] 0.02 | [5] 0 | [6] 0.028 | [7] -0.032 | [8] -0.046 | [9] 0.023

Copied from above (2 entries):
PDS5B (UniProt Q9NTI5)
inactive: erlotinib -0.023 | [1] 0.002 | [2] 0.001 | [3] 0.043 | [4] 0.092 | [5] 0.12 | [6] 0.061 | [7] 0.013 | [8] -0.302 | [9] -0.287

PDAP1 (UniProt Q13442)
inactive: erlotinib 0.012 | [1] -0.073 | [2] 0.047 | [3] 0.032 | [4] 0.015 | [5] 0.018 | [6] 0.024 | [7] -0.001 | [8] 0.054 | [9] 0.026

The listing continues.

PELP1 (UniProt Q8IZL8)
inactive: erlotinib 0.082 | [1] 0.044 | [2] -0.035 | [3] 0.008 | [4] -0.032 | [5] -0.008 | [6] 0.007 | [7] -0.053 | [8] -0.041 | [9] 0.08

PCNP (UniProt Q8WW12)
inactive: erlotinib 0.02 | [1] -0.021 | [2] -0.004 | [3] -0.028 | [4] 0.005 | [5] 0.033 | [6] 0.03 | [7] -0.011 | [8] 0.111 | [9] 0.071

PDIK1L (UniProt Q8N165)
inactive: erlotinib -0.075 | [1] 0.083 | [2] -0.031 | [3] -0.052 | [4] 0.034 | [5] 0.115 | [6] -0.034 | [7] 0.197 | [8] 0.023 | [9] -0.007

PCNT (UniProt O95613)
inactive: erlotinib 0.284 | [1] -0.138 | [2] -0.095 | [3] -0.099 | [4] 0.15 | [5] -0.023 | [6] -0.079 | [7] -0.097 | [8] 0.065 | [9] -0.021

PEX12 (UniProt O00623)
inactive: erlotinib 0.011 | [1] 0.154 | [2] 0.045 | [3] 0.16 | [4] -0.014 | [5] -0.115 | [6] 0.024 | [7] 0 | [8] -0.004 | [9] -0.012

PAIP1 (UniProt Q9H074)
inactive: erlotinib -0.047 | [1] 0.043 | [2] 0.012 | [3] 0.054 | [4] 0.012 | [5] 0.034 | [6] -0.065 | [7] -0.05 | [8] -0.023 | [9] -0.024

PAIP2 (UniProt Q9BPZ3)
inactive: erlotinib -0.006 | [1] 0.032 | [2] -0.145 | [3] 0.028 | [4] -0.223 | [5] 0.063 | [6] -0.008 | [7] 0.062 | [8] 0.073 | [9] -0.216

PBLD (UniProt P30039)
inactive: erlotinib 0.092 | [1] 0.08 | [2] 0.165 | [3] -0.042 | [4] 0.122 | [5] -0.132 | [6] 0.018 | [7] 0.025 | [8] -0.016 | [9] 0.087

PDXDC1 (UniProt Q6P996)
inactive: erlotinib -0.033 | [1] 0.125 | [2] -0.053 | [3] -0.077 | [4] -0.171 | [5] 0.008 | [6] -0.155 | [7] 0.095 | [8] -0.152 | [9] -0.2

PDLIM5 (UniProt Q96HC4)
inactive: erlotinib -0.004 | [1] 0.032 | [2] 0.066 | [3] -0.016 | [4] 0.004 | [5] -0.007 | [6] 0.022 | [7] -0.012 | [8] -0.027 | [9] 0.057

PAGE4 (UniProt O60829)
inactive: erlotinib 0.048 | [1] 0.038 | [2] 0.408 | [3] 0.048 | [4] -0.075 | [5] -0.154 | [6] 0.114 | [7] 0.031 | [8] -0.088 | [9] 0.15

PDS5A (UniProt Q29RF7)
inactive: erlotinib 0.225 | [1] 0.132 | [2] 0.04 | [3] -0.227 | [4] 0.05 | [5] -0.176 | [6] 0.14 | [7] 0.108 | [8] -0.25 | [9] -0.267

PDPR (UniProt Q8NCN5)
inactive: erlotinib 0.042 | [1] 0.043 | [2] 0.06 | [3] 0.004 | [4] 0.014 | [5] -0.027 | [6] -0.128 | [7] 0.013 | [8] -0.029 | [9] 0.02

PANX1 (UniProt Q96RD7)
inactive: erlotinib -0.001 | [1] -0.013 | [2] 0.032 | [3] 0.032 | [4] 0.029 | [5] 0.014 | [6] -0.016 | [7] -0.018 | [8] -0.012 | [9] 0.094

PDIA3 (UniProt P30101)
inactive: erlotinib -0.083 | [1] -0.04 | [2] -0.049 | [3] 0.002 | [4] -0.111 | [5] -0.019 | [6] 0.004 | [7] 0.047 | [8] -0.005 | [9] -0.05

PCIF1 (UniProt Q9H4Z3)
inactive: erlotinib 0.171 | [1] 0.251 | [2] 0.071 | [3] 0.008 | [4] 0.09 | [5] 0.027 | [6] -0.08 | [7] 0.036 | [8] -0.168 | [9] -0.035

PDIA6 isoform 2 (UniProt Q15084)
inactive: erlotinib -0.01 | [1] -0.054 | [2] 0.035 | [3] -0.041 | [4] -0.046 | [5] 0.013 | [6] -0.014 | [7] 0.006 | [8] 0.024 | [9] 0.049

PANK3 (UniProt Q9H999)
inactive: erlotinib -0.002 | [1] -0.101 | [2] 0.017 | [3] 0.049 | [4] 0.102 | [5] -0.045 | [6] -0.017 | [7] -0.111 | [8] -0.031 | [9] 0.079

PAXIP1 (UniProt Q6ZW49)
inactive: erlotinib -0.034 | [1] 0.118 | [2] 0.014 | [3] 0.004 | [4] -0.129 | [5] -0.065 | [6] 0.255 | [7] 0.038 | [8] 0.007 | [9] 0.091
